In all, about 300,000 compounds went through this assay and about 5,400 (1.8%) were called active. Inconclusive results, whose numbers are uncertain, are shown with a selection of clear calls. The call rests on the fitted dose curve; tested in HEK293 cells. Potencies beside an inconclusive call are fits to weak or partial responses and may not hold up.
Assay: qHTS for inhibitors of binding or entry into cells for Marburg Virus
Details: Marburg virus pseudotyped entry inhibition, cell reporter; series mostly up to 37.8 µM
Potency means the concentration at half of the fitted maximal effect.

Row | Compound | Potency
1 | COC(=O)C1=C(N)Oc2cc(C)n(CC3CCCO3)c(=O)c2C1c1ccccc1OC (stereo unspecified) | inactive
2 | COc1cccc(/C=N\NC(=O)C2C(=O)NCC2c2ccccc2)c1O (stereo unspecified) | inconclusive: 22.4 µM [inhibitor, single point]
3 | COc1ccc(N(CC(O)Cn2c(C)nc3ccccc32)S(=O)(=O)c2ccccc2)cc1 (stereo unspecified) | inconclusive: 3.55 µM [inhibitor, single point]
4 | Cc1ccccc1N1CCN(Cc2ccc([N+](=O)[O-])o2)CC1 | inconclusive: 35.5 µM [inhibitor, single point]
5 | Cc1oc(-c2ccc3c(c2)OCCO3)cc1C(=O)O | inconclusive: 2.82 µM [inhibitor, full curve, poor fit]
6 | Cc1c(NC(=O)CCc2ccccc2)cccc1[N+](=O)[O-] | inactive
7 | CN(Cc1ccccc1)C(=O)[C@H]1CCC(=O)N1Cc1ccco1 | inactive
8 | Cc1ccc(NCCC(=O)c2ccccc2)cc1Cl | inconclusive: 0.891 µM [activator, full curve, poor fit]
9 | COc1ccc(CCNC(=O)C2CCCN(S(C)(=O)=O)C2)cc1 (stereo unspecified) | inactive
10 | Cc1ccc(OCC(=O)N2N=C(c3ccc(Cl)cc3)CC2c2ccco2)c([N+](=O)[O-])n1 (stereo unspecified) | inconclusive: 6.31 µM [inhibitor, full curve, poor fit]
11 | COc1ccc(-n2nc3cc(C)c(N)c(Br)c3n2)cc1 | inconclusive: 2.82 µM [activator, partial curve]
12 | N#Cc1nc(N)nc(N(c2ccccc2)c2ccccc2)n1 | inconclusive: 2.51 µM [inhibitor, partial curve, poor fit]
13 | Cc1ccc(C)n1-c1sc2c(c1C(=O)O)CCCC2 | inconclusive: 10 µM [inhibitor, partial curve, poor fit]
14 | CCCCCCOc1ccc(CN2CCN(C)CC2)cc1 | inconclusive: 16.4 µM [inhibitor, single point]
15 | CCc1nnc(NC(=O)Cc2ccc(OC)cc2)s1 | inactive
16 | Cc1cccc(OCCCCNCc2ccccc2)c1 | inconclusive: 7.94 µM [inhibitor, partial curve, poor fit]
17 | CCc1ccccc1NC(=S)N(CCCN(C)C)Cc1cc2cc3c(cc2[nH]c1=O)OCO3 | inconclusive: 31.6 µM [inhibitor, single point]
18 | CC(C)N(C)C(=O)CCc1nnc(CCc2c[nH]c3ccccc23)o1 | inconclusive: 0.891 µM [inhibitor, partial curve, poor fit]
19 | O=C(NC1CCCCC1)C(c1ccccc1)N(Cc1ccc2c(c1)OCO2)C(=O)c1cnsn1 (stereo unspecified) | active: 11.2 µM
20 | COc1ccccc1Oc1ccnc2cc(Cl)ccc12 | inconclusive: 12.6 µM [inhibitor, single point]
21 | Cc1ccc2[nH]c3c(N4CCCCCC4)ncnc3c2c1 | inactive
22 | Oc1ccccc1C=NN=CC=Cc1ccccc1 | inactive
23 | COc1ccc(NC(=O)C23CC4CC(CC(Cl)(C4)C2)C3)cc1S(=O)(=O)N1CCOCC1 | inactive
24 | O=C(CCc1nnc(CCCc2ccccc2)o1)NCCc1ccccc1 | inconclusive: 35.5 µM [activator, single point]

Row | Compound | Potency
25 | Cc1cccc(NC(=O)Cc2c(F)cccc2Cl)n1 | inconclusive: 11.2 µM [activator, single point]
26 | CN(C)CCNC(=O)c1cccc(NS(=O)(=O)c2ccc(Cl)c(Cl)c2)c1 | inconclusive: 25.1 µM [inhibitor, partial curve, poor fit]
27 | CCc1cccc(C)c1NC(=O)CO/N=C(\C)c1cc2ccccc2o1 | inconclusive: 10.3 µM [inhibitor, partial curve, poor fit]
28 | S=C(NN=C(c1ccccc1)c1ccccn1)N(Cc1ccccn1)Cc1ccccn1 | active: 0.631 µM
29 | COc1ccc(S(=O)(=O)N2CCCC2CNC(=O)C(=O)NCCc2ccccc2)cc1 (stereo unspecified) | inconclusive: 6.31 µM [inhibitor, full curve, poor fit]
30 | Cc1ccc(S(=O)(=O)N2CCN(C(=O)c3nn(C(C)C)c(=O)c4ccccc34)CC2)cc1C | inconclusive: 35.5 µM [inhibitor, single point]
31 | CCOCCCNC(=O)C1CCN(S(=O)(=O)c2c(C)noc2/C=C\c2ccc(OC)cc2)CC1 | inactive
32 | CC(=O)N1CCc2cc(S(=O)(=O)NCc3ccc(C)cc3)ccc21 | inconclusive: 22.4 µM [inhibitor, partial curve, poor fit]
33 | Cc1ccc(N/C=C2\C(=O)C3(C)CCC2C3(C)C)cc1C (stereo unspecified) | inactive
34 | O=C(NCc1nnc(SCC(=O)N2CCOCC2)o1)c1c(F)cccc1F | inconclusive: 0.794 µM [inhibitor, partial curve]
35 | O=C(Nc1ccc(Cl)cc1Cl)c1cc2ccccc2o1 | inactive
36 | Cc1ccc(S(=O)(=O)N2CCN(c3ccc(C(=O)N4CCOCC4)cc3[N+](=O)[O-])CC2)cc1 | inactive
37 | Cc1ccc(NC(=O)CN2c3ccccc3S(=O)(=O)c3ccccc32)cc1F | inconclusive: 10 µM [inhibitor, single point]
38 | CCN(C(=O)c1sc2cc(OC)ccc2c1Cl)c1ccccc1 | inconclusive: 8.91 µM [inhibitor, partial curve, poor fit]
39 | O=C(NCc1ccccn1)c1cc(-c2ccccc2)nc2ccccc12 | inactive
40 | CCC(=O)N1CCN(c2ccccc2NC(=S)NC(=O)c2cccc([N+](=O)[O-])c2)CC1 | inconclusive: 35.5 µM [inhibitor, single point]
41 | CN(Cc1ccccc1)Cc1c(O)ccc2c(=O)c(-c3ccccc3)c(C(F)(F)F)oc12 | inactive
42 | COc1ccccc1C1CCN(Cc2ccccc2)CC1 | inconclusive: 35.5 µM [inhibitor, single point]
43 | COc1ccc(CN2CC(C(N)=O)Oc3ccccc32)cc1F (stereo unspecified) | inactive
44 | C=CC[n+]1c(-c2ccc(C)cc2)csc1Nc1ccc(NC(C)=O)cc1 | active: 6.51 µM
45 | Nc1nc(CSCCO)nc(Nc2ccccc2)n1 | inactive
46 | Cc1n[nH]c(=S)n1/N=C/c1ccccc1OCc1ccc(Cl)cc1 | inactive
47 | Cc1ccc(NC(=O)/C(C#N)=C/c2ccccc2Cl)cc1C | inconclusive: 1.26 µM [inhibitor, partial curve, poor fit]
48 | COc1ccccc1OCCCCn1c(C2CC(=O)N(c3ccccc3Cl)C2)nc2ccccc21 (stereo unspecified) | inconclusive: 5.62 µM [inhibitor, single point]

As a short view, part of the list above.
Row | Compound | Potency
36 | Cc1ccc(S(=O)(=O)N2CCN(c3ccc(C(=O)N4CCOCC4)cc3[N+](=O)[O-])CC2)cc1 | inactive
37 | Cc1ccc(NC(=O)CN2c3ccccc3S(=O)(=O)c3ccccc32)cc1F | inconclusive: 10 µM [inhibitor, single point]
38 | CCN(C(=O)c1sc2cc(OC)ccc2c1Cl)c1ccccc1 | inconclusive: 8.91 µM [inhibitor, partial curve, poor fit]
39 | O=C(NCc1ccccn1)c1cc(-c2ccccc2)nc2ccccc12 | inactive
40 | CCC(=O)N1CCN(c2ccccc2NC(=S)NC(=O)c2cccc([N+](=O)[O-])c2)CC1 | inconclusive: 35.5 µM [inhibitor, single point]
41 | CN(Cc1ccccc1)Cc1c(O)ccc2c(=O)c(-c3ccccc3)c(C(F)(F)F)oc12 | inactive

Later entries:

Row | Compound | Potency
49 | CCCc1nnc(NC(=O)CC(C)c2ccccc2)s1 (stereo unspecified) | inactive
50 | S=C(Nc1ccccc1)N1CCOCC1 | inconclusive: 2.24 µM [inhibitor, partial curve, poor fit]
51 | CC(=O)OC[C@H]1O[C@H](C#Cc2ccc(F)cc2F)C=C[C@H]1OC(C)=O | inconclusive: 2.66 µM [activator, single point]
52 | Cc1ccc(C2=NC(c3ccc(F)cc3)=Nc3ccc(C)cc3N2)cc1 | inactive
53 | Cc1ccc(Cn2c(O)c(N=NC(=S)Nc3ccccc3F)c3ccccc32)cc1 | inconclusive: 8.2 µM [inhibitor, full curve, poor fit]
54 | Cn1c(N/N=C/c2cccs2)nc2c1c(=O)n(Cc1ccccc1)c(=O)n2C | inconclusive: 11.2 µM [inhibitor, single point]
55 | O=C(CN1CCN(Cc2ccccc2)CC1)Nc1cccc(S(=O)(=O)N2CCCCCC2)c1 | inconclusive: 2.82 µM [inhibitor, full curve]
56 | CN1CCc2nc(SCc3ccc(Cl)cc3)c(C#N)c(-c3cccs3)c2C1 | inactive
57 | Cc1occc1C(=O)NNC(=O)c1ccccc1Br | inconclusive: 0.164 µM [activator, full curve, poor fit]
58 | CCCCOC(=O)Nc1ccccc1C(N)=O | inconclusive: 29.1 µM [activator, partial curve, poor fit]
59 | COc1ccc(OC)c(-c2cnc(OC(C)(C)C)nc2OC(C)(C)C)c1 | inactive
60 | Cc1cccc(Cn2c(=O)n(CCCCC(=O)NCc3ccc4c(c3)OCO4)c(=O)c3ccccc32)c1 | inconclusive: 5.01 µM [inhibitor, full curve]
61 | COc1cc(NC(=O)Cn2c(=O)n(-c3cccc(C)c3)c(=O)c3c(C)c(C)sc32)cc(OC)c1 | inconclusive: 0.58 µM [activator, single point]
62 | CCOC(=O)c1cc(=O)n2nc(-c3ccc(C)cc3)nc2s1 | inconclusive: 11.2 µM [activator, single point]
63 | Cc1ccccc1C1c2[nH]c3ccccc3c2C[C@H]2C(=O)N(C3CC3)CC(=O)N12 (stereo partly specified) | inconclusive: 35.5 µM [inhibitor, single point]
64 | COc1ccccc1CN1CCCCCC1 | inactive
65 | CSc1cccc(NC(=O)CCC(=O)O)c1 | inactive
66 | O=C(CSc1ccc(-c2ccccn2)nn1)c1ccccc1 | inconclusive: 35.5 µM [inhibitor, single point]
67 | COc1ccccc1N1CCN(S(=O)(=O)c2c(C)sc3ncn(CC(=O)Nc4ccc(C(C)C)cc4)c(=O)c23)CC1 | inactive
68 | Cc1ccc(OCC(=O)Nc2ccc3c(c2)OC(F)(F)O3)c([N+](=O)[O-])n1 | inconclusive: 35.5 µM [activator, single point]
69 | CCOc1cccc(/C=C/c2ccc3cccc(O)c3n2)c1O | inconclusive: 35.5 µM [inhibitor, single point]
70 | Cc1cc(C)cc(OCC(O)CN2CCN(C(=O)c3ccco3)CC2)c1 (stereo unspecified) | inactive
71 | C/C(CCN1CCCc2nc(C)c(C)cc21)=N\OC[C@@H](O)COCc1ccco1 | inconclusive: 1.19 µM [inhibitor, single point]

Source: PubChem BioAssay AID540276 (National Center for Advancing Translational Sciences (NCATS), 2011)
